Article PMC6051343
These are yes or no findings as the source states them, for the method shown. Binding seen in cells or lysates may run through a third protein. These calls come from enrichment with a bait or labelling near it, and not all partners need be listed.

B1: Psm1 (protein, UniProt O94383 1-1228)
chain: MGRLLRLEVENFKSYRGHQIIGPFEDFTSIIGPNGAGKSNLMDAISFVLGVKSSHLRSTNVKELIYRGKILQRDNTDFTDSSNPTTAYVKLMYELDNGEQREYKRAITPSGATEYKIDEEIVTFSEYCGSLQKENILVRARNFLVFQGDVETIASQSPLELSKLVEQISGSLEYKSEYDKSKDEQDKAVNLSAHSFNKKRGINAELRQYQEQKTEAERYQSQKEKRDSAQLVYLLWKLFHLEKSISSNMAEVTRLKADSIQLIERRDENTKEIEKLKEKEGSIRRNLLAFDRKVRKQEKLIASKRPELISIAEKALESKSNLRKIQRKAAEIEKDYSDQASTLQVLENQLTSLSAAEKEFLKDMQEKEQLKGLRLLPEDKEEYEGLRSEADKLNSNLLFKLQTLNRNIKVTSQSKDSLTSIVGDLESKIKSLHESVSSLDTERADLLAKINEKIESLELEKHDQQKKRLTYSELFHKTQELNEELQSCLQKILEASADRNESKQDAKKREALYALKRIYPEVKGRIIDLCTPTQKKYESAIAAALGKNFDAIVVETQAVAKECIDYIKEQRIGIMTFFPMDTIAASPVNQKFRGTHKGARLAIDVLNFESEYERVMISAVGNTLICDSMTVARDLSYNKRLNAKTVTLEGTVIHKTGLITGGSSNNRSAKHWDDHDFDLLTQTKDRLMHQIGEIEYQKSSCVITESDTVKLHSLESEISLLKDKYTVVSRSVEDKKKEIGHYESLIKEKQPHLSELEMELRNFVKSRDELQIQVEKVEEKIFSGFCKRIGISDIHTYDEIHRTFTQSFTQKQLEFTKQKSLLENRISFEKQRVSDTRLRLERMHKFIEKDQESIDNYEQNREALESEVATAEAELELLKEDFASENSKTEKILLAASEKKLVGKRLVSELTKLSGNITLLESEIDRYVSEWHAILRKCKLEDIDVPLREGSLTSIPIDDVSNSGDITMGEEPSEPVINFEKFGVEVDYDELDEELRNDGSESMASVLQEKLREYSEELDQMSPNLRAIERLETVETRLAKLDEEFAAARKAAKNAKERFNAVKQKRLQKFQAAFSHISEQIDPIYKELTKSPAFPLGGTAYLTLDDLDEPYLGGIKFHAMPPMKRFRDMDQLSGGEKTMAALALLFAIHSYQPSPFFVLDEIDAALDQTNVTKIANYIRQHASSGFQFVVISLKNQLFSKSEALVGIYRDQQENSSRTLSINLEGYVE
modifications: mono-methylated on K536 and K1200 (found by mass spectrometry)
B2: Rec8 (protein, UniProt P36626 1-561)
chain: MFYNQDVLTKEKGGMGVIWLAATLGSKHSLRKLHKKDIMSVDIDEACDFVAFSPEPLALRLSSNLMIGVTRVWAHQYSFFHSQVSTLHLRVRKELDHFTSKPFKNIDIQNEQTNPKQLLLAEDPAFIPEVSLYDAFNLPSVDLHVDMSSFTQPKENPNISVLETLPDSTSYLINTSQNYSLRNNVSSFVYEDSRAFSTEEPLDFEFDENGDIQELTKGTINSDPSLQAASQHSNLGSVQREYNSEEQESRIHMFEIDEDVLPLPVPLQSVMDSEHNENEPRALKRRKVQKLLEPDENIELSTRTLSQWRKNYVERMIALEATKYVRRRGASSAKKKELNKFFDWESFHPLLKPWIEKLKPSNNTPSEIDDVLRNIDTSEVEVGRDVQGELGLNIPWNTSSRSNSAINSKSHSQTGSEHSTPLLDTKYRKRLPHSPSMPSRVEFLPALESSQFHETLNSELSLQLSDDFVLYKNTQEENAHLMLSMEKECANFYEYAKTAIYENNGRITFSSLLPNDLKRPVVAQAFSHLLSLATKSAFLVKQDKPYSEISVSLNLKSTDAI
B3: Eme1 (protein, UniProt Q9C103 1-735)
chain: MTLQSTDSAIVIDSEADVDISSSQASPSKDNIALSEHNVITVLDTPQRSTQCDSLLKSFSTPLVSGSEDVLPSPRDALNITNKKSVTDNLLLSLTSSNQSTNTNLNPSSRVEIINLNSSPPNSLSSQPKHQEFHLFHTPTIPRTTQLSSKTSSPIVIPDDNEQVASPLSKKAASLTSSPLKDFQSSPPLSTVLQKSHSLHDILLDTNDDDHFPFTQSPLTKTKSFNDALTSSSSILKPCMPSIASPTSNRLSHAPSTPNLFPNQDSSNTIDLINNRSKTSVENQERTFNLTSDVHLDSPTSPSKHSSIEPNTSQEDSFQELPSLNKLSIQSRAFKKMRLPKISRTTDTPPASTSNSNKKNLDKLKKMRKLCSRSLEPYELDSNTQRKRKRYEDSLKKSKTLDKVDSLNRKMAKELDRKNSKELQKINKVKRTKEECLSEIILLSPDDWASSWYSTVRSQLDSYNCQFVVNSNQPKDSIMWKRKVNNVFNSSTNRFELSIEHEQIEPFALLRLKCRDFIKYIEEDQADTFFHEMSEKFKGCKLILLLEGIPNYFKSLKAELNRQYAAAVNSGTRPLLFGSLSKYQNFTKEKLESEIVRFSFEHSILINTSNDEKETAQWIVSFTGDIALSRYKHFSKFSARASTTEIGHVKSADRIENSLNFMLRQILRVTPNIANAICDQFDSIPSLIHHLKTHGEESLTNVVIQSSISERNLGPVLSRRIYNTFLCKEASSDAP

What follows are binders tested against T1, Rec11–TAP (S. pombe) (UniProt Q92380) (assay: affinity purification with mass spectrometry; tandem affinity purification of Rec11–TAP (IgG Sepharose, TEV cleavage, calmodulin Sepharose) from meiotically induced S. pombe cells harvested 2.5–3.5 h after induction; IPP150 buffer (50 mM Tris-HCl pH 8.0, 150 mM NaCl, 10% glycerol, 0.1% NP-40); eluate silver stained and analysed by mass spectrometry).
T1 sequence: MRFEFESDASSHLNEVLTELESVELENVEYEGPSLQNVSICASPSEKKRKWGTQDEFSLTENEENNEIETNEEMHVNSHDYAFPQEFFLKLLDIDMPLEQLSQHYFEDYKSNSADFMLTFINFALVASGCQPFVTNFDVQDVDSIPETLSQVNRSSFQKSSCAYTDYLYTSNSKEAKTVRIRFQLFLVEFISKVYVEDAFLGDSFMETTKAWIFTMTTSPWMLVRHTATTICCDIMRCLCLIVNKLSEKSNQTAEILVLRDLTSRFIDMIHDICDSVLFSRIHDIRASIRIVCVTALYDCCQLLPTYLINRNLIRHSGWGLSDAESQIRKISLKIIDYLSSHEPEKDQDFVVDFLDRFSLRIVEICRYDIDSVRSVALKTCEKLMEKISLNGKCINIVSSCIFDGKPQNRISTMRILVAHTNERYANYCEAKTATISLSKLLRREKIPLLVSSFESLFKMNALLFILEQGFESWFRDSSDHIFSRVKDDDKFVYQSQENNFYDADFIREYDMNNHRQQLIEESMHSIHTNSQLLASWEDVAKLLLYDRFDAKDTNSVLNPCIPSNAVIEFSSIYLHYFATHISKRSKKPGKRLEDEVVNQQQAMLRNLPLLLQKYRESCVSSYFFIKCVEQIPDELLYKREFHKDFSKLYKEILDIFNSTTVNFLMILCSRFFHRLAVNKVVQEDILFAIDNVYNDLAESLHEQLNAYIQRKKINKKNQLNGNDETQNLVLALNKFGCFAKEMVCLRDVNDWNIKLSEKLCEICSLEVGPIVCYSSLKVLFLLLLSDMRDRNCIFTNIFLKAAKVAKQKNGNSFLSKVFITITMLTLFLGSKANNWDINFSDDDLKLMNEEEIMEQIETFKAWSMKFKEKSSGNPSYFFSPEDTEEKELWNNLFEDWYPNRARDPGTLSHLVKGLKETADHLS
For B1, the binding was “binds”.
In the case of B2, the binding is reported as “binds”.
With B3 the binding was “binds”.
